The text below walks through data of paper PMC10202959.

These are yes or no findings as the source states them, for the method shown. A result given as binding can be weak or reduced; the word gives no strength.

In test [1] the target is T1, neurturin (NRTN) (human) (UniProt Q99748).
T1 sequence: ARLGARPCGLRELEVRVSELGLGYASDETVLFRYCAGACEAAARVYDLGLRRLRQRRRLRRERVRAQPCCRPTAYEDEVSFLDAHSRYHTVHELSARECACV
Kind of test: ELISA; plates coated with 100 nM protein candidate or BSA, blocked with 1% BSA; 100 nM ECM protein in PBS-T with 0.1% BSA, 1 h at 37 °C; bound ECM protein detected with HRP-conjugated antibodies; fold change over BSA control; both purified. For orientation: ELISA stands for enzyme-linked immunosorbent assay.

In test [2] the target is T1, neurturin (NRTN) (human). Kind of test: ELISA; by the methods: plates coated with 100 nM PlGF-2, AREG or NRTN, ECM proteins at increasing concentration in PBS-T with 0.1% BSA, detected with HRP-conjugated antibodies against ECM proteins; KD from a one site specific binding model (the legend of Fig. 1e tells the reverse orientation); both purified.
Test [3] concerns the target T2, placenta growth factor PlGF-2 (human) (UniProt P49763).
T2 sequence: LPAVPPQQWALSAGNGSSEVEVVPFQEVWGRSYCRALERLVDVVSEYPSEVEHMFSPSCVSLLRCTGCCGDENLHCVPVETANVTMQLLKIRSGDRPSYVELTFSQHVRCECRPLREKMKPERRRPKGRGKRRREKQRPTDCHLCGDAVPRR
The description is as above.

As for human plasma fibronectin, the binding result in test [1], in test [2] and in test [3] was “binds” throughout.

With human fibrinogen (complex), the binding entry in test [3] is given as “binds”.
